According to the supplement of paper PMC12823440, “Inhibitors supercharge kinase turnover through native proteolytic circuits” (Nature, 2025):
Counter-ions that a name gives are not always drawn. The list shows a part of the results. Hit calls seldom repeat between salt and free forms of one compound.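 Kinases were expressed as nanoluciferase fusions in K562 cells and luminescence was read every 4 h between 2 and 18 h as percent of control, DMSO set to 100% and a positive control to 0%. A time point counts as decreased when the signal drops significantly (2 sigma). The hit call is the authors' own, does not follow from the count of time points alone, and its rule is not shown.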

target: SYK (UniProt P43405); experiment: kinase-Nluc reporter destabilization hit call (1 = scored as downregulated) (binary); higher = compound decreases kinase abundance; conditions: K562; 2-18 h

kinase-Nluc reporter destabilization hit call, inactive:
NCc1ccc(Nc2ncc(F)c(Nc3ccccc3)n2)cc1 (10 µM) 0
C=C(C)C(=O)Nc1cccc(-c2ncnc3[nH]cc(C(=O)OCC)c23)c1 (10 µM) 0
CCOc1cc(C(=O)N2CCC(N3CCN(C)CC3)CC2)ccc1Nc1ncc2c(n1)N(C1CCCC1)c1ccccc1C(=O)N2C (10 µM) 0
CCOc1ccc(C(=O)Nc2ncc([N+](=O)[O-])s2)cc1 (10 µM) 0
CNC(=O)Nc1ccc(-c2cc(-c3ccnc(Nc4ccc(C)c(S(=O)(=O)N(C)C)c4)n3)ccn2)cc1 [hSMG-1 inhibitor 11e] (2.5 µM) 0
CNC(=O)c1ccc(-c2cnc3cnc(C(=O)N(C)c4ccc(Cl)cc4)cn23)cc1 (2.5 µM) 0
COc1cccc(-n2c(=O)[nH]c3cc(Cl)n(-c4ccc(-c5cccc(OC)c5O)cc4)c3c2=O)c1 (2.5 µM) 0
O=C(Nc1cccnc1)c1cc(C(=O)c2c(F)cccc2Br)c[nH]1 (10 µM) 0
CN(CC(=O)N(Cc1ccc(C2CCCCC2)cc1)c1ccc(C(=O)O)cc1)S(=O)(=O)c1c(F)c(F)c(F)c(F)c1F (2.5 µM) 0
COc1c(NC(=O)C(=O)c2ccc(OCCN3CCOCC3)c3ccccc23)cc(C(C)(C)C)cc1NS(C)(=O)=O (2.5 µM) 0
CC(C)CC1(O)CCN(C(=O)c2ccc(NS(=O)(=O)c3cccc4nccnc34)cc2)CC1 (10 µM) 0
O=C(/C=C/c1ccc(O)c(O)c1)c1ccc(O[C@@H]2O[C@H](CO)[C@@H](O)[C@H](O)[C@H]2O)c(O)c1O [Marein] (10 µM) 0
Cc1cc2cc(Nc3ccnc(Nc4ccc5[nH]c(C)cc5c4)n3)ccc2[nH]1 (2.5 µM) 0
Cc1cc(Nc2cc(Cl)nc(Oc3ccc([N+](=O)[O-])cc3)n2)n[nH]1 [Autophinib] (2.5 µM) 0
Fc1ccc(-c2nc(-c3ccccc3F)[nH]c2-c2ccncc2)cc1 (2.5 µM) 0
OC(COc1ccc(C(F)(F)F)cc1)CN(Cc1ccccc1)Cc1ccccc1 (stereo not given) (2.5 µM) 0
COc1ccc2[nH]cc(/C=C3\C(=O)Nc4ccc(NC(=O)CCN5CCCCC5)cc43)c2c1 (2.5 µM) 0
CS(=O)(=O)c1ccc(-c2noc(C(F)(F)F)c2-c2ccccc2)cc1 (10 µM) 0
COCCO[C@@H]1[C@H](O)[C@@H](CO)O[C@H]1n1cnc2c(=O)[nH]c(N)nc21 [2′-O-(2-Methoxyethyl)guanosine] (10 µM) 0
Cn1cnc(-c2cc3nccc(Oc4ccc(NC(=S)NC(=O)Cc5ccccc5)cc4F)c3s2)c1 [MGCD-265 analog] (10 µM) 0
Cc1noc(C)c1-c1ccc(-c2cc(C(N)=O)c(NC(N)=O)s2)c(O[C@H]2CCNC2)c1 (10 µM) 0
Cc1c(CN2CCN(S(C)(=O)=O)CC2)sc2c(N3CCOCC3)nc(-c3cnc(N)nc3)nc12 (2.5 µM) 0
CC(C)CN(CC(=O)N1CCN(CC(OCc2ccc3ccccc3c2)c2ccc(Cl)cc2Cl)CC1)CC(C)C (stereo not given) [LYN-1604 (dihydrochloride)] (2.5 µM) 0
CC/C=C\C/C=C\C/C=C\CCCCCCCC(=O)O [α-Linolenic acid] (10 µM) 0
Nc1ncnc2c1c(-c1ccc(Oc3ccccc3)cc1)nn2C1CCNCC1 [N-piperidine Ibrutinib (hydrochloride)] (10 µM) 0
CC(C)NC(=O)N1CC[C@H](NC2=Nc3cc(F)ccc3N(CC(F)F)c3ccc(Cl)cc32)C1 (10 µM) 0
O=C(Nc1cc(Oc2cc(F)c(NC(=O)C3(C(=O)Nc4ccc(F)cc4)CC3)cc2F)ccn1)C1CC1 [Altiratinib] (10 µM) 0
COCCOc1ccc(-c2cn(-c3ccccc3)c3nc[nH]c(=O)c23)cc1 (10 µM) 0
Cc1ccc2nc(NC(=O)CSc3nc4c(c(=O)n3-c3ccccc3)SCC4)sc2c1 (2 µM) 0
C[C@]1(O)CCC[C@@H]1n1c(=O)c(C(F)F)cc2cnc(NC3CCN(S(C)(=O)=O)CC3)nc21 (10 µM) 0

In the list so far, these contain a nitro group on carbon.
kinase-Nluc reporter destabilization hit call, inactive:
CCOc1ccc(C(=O)Nc2ncc([N+](=O)[O-])s2)cc1 (10 µM) 0
Cc1cc(Nc2cc(Cl)nc(Oc3ccc([N+](=O)[O-])cc3)n2)n[nH]1 [Autophinib] (2.5 µM) 0
